Results are given in words; binding and its absence hold for the method and conditions named. Some binding calls cover weakened binding; strength is not graded here.
Biological target: T1, Human IL22 (human, UniProt Q9GZX6 34-179)
T1 sequence: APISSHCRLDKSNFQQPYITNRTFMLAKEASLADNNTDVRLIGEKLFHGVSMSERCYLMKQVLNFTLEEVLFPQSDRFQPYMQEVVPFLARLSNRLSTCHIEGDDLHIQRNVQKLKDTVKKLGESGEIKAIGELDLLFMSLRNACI
Test: SPR Biacore T200; IL22 held by captured Fezakinumab

binding: binds
B1: IL22BP (receptor, UniProt Q969J5-2 22-231, looked up)
chain: TQSTHESLKPQRVQFQSRNFHNILQWQPGRALTGNSSVYFVQYKIYGQRQWKNKEDCWGTQELSCDLTSETSDIQEPYYGRVRAASAGSYSEWSMTPRFTPWWETKIDPPVMNITQVNGSLLVILHAPNLPYRYQKEKNVSIEDYYELLYRVFIINNSLEKEQKVYEGAHRAVEIEALTPHSSYCVVAEIYQPMLDRRSQRSEERCVEIP

Reference: patent US20230416357A1 (UCB, published 2023)
